Results are given in words; binding and its absence hold for the method and conditions named. In cells and extracts the contact can be indirect. For part of these data: Where a sequence is shown, tags or fusion partners need not be part of it.
Experiments:
[1] = target: small-glutamine rich tetratricopeptide repeat-containing protein alpha (SGTA), immobilized (UniProt O43765); assay: pull-down; SGTA, BSA or His-Trx immobilised on UltraLink Biosupport; [35S]-labelled wheat-germ translation product; 2 h at 25°C; washed with buffer R (50 mM HEPES-KOH pH 7.5, 40 mM potassium acetate, 5 mM MgCl2); sequential elution with 1 M NaCl, 0.5% Triton X-100, SDS sample buffer; salt-sensitive binding read by phosphorimaging; quantified as % of input after subtracting the BSA signal; only the target …
[2] = target: UBA domain from Dsk2, immobilized (UniProt P48510); assay: pull-down; altered binding conditions that favour the Dsk2-UBA interaction (manufacturer's instructions, Enzo Life Sciences); immobilised Dsk2-UBA or SGTA; [35S]-labelled wheat-germ translation product; only the target purified

Sequences of proteins named here, by UniProt entry; tags and fusion partners are left off. Residues count along the entry.
UniProt O43765: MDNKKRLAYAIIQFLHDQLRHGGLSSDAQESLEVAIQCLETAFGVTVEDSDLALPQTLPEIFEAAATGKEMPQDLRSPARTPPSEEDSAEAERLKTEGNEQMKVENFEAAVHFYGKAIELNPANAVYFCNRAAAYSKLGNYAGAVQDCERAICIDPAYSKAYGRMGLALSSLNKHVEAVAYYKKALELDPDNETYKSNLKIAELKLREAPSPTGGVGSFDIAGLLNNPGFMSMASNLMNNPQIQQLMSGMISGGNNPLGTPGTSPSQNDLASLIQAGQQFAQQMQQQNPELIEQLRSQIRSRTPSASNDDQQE
UniProt P48510, residues 327-371: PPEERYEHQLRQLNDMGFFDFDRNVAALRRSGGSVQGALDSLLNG

binding [1] | binding [2] | Binder
no binding | – | BAG1, full-length human (protein, UniProt Q99933 1-345, [35S]methionine label (in vitro translation)) MAQRGGARRPRGDRERLGSRLRALRPGREPRQSEPPAQRGPPPSGRPPARSTASGHDRPTRGAAAGARRPRMKKKTRRRSTRSEELTRSEELTLSEEATWSEEATQSEEATQGEEMNRSQEVTRDEESTRSEEVTREEMAAAGLTVTVTHSNEKHDLHVTSQQGSSEPVVQDLAQVVEEVIGVPQSFQKLIFKGKSLKEMETPLSALGIQDGCRVMLIGKKNSPQEEVELKKLKHLEKSVEKIADQLEELNKELTGIQQGFLPKDLQAEALCKLDRRVKATIEQFMKILEEIDTLILPENFKDSRLKRKGLVKKVQAFLAECDTVEQNICQETERLQSTNFALAE
– | no binding | ubiquitin-like protein 4A (UBL4A), full-length, C-terminal V5/poly-histidine tag (protein, UniProt P11441 1-157, [35S]methionine label (in vitro translation)) MQLTVKALQGRECSLQVPEDELVSTLKQLVSEKLNVPVRQQRLLFKGKALADGKRLSDYSIGPNSKLNLVVKPLEKVLLEEGEAQRLADSPPPQVWQLISKVLARHFSAADASRVLEQLQRDYERSLSRLTLDDIERLASRFLHPEVTETMEKGFSK
no binding | – | UBL7, full-length human (protein, UniProt Q96S82 1-380, [35S]methionine label (in vitro translation)) MSLSDWHLAVKLADQPLTPKSILRLPETELGEYSLGGYSISFLKQLIAGKLQESVPDPELIDLIYCGRKLKDDQTLDFYGIQPGSTVHVLRKSWPEPDQKPEPVDKVAAMREFRVLHTALHSSSSYREAVFKMLSNKESLDQIIVATPGLSSDPIALGVLQDKDLFSVFADPNMLDTLVPAHPALVNAIVLVLHSVAGSAPMPGTDSSSRSMPSSSYRDMPGGFLFEGLSDDEDDFHPNTRSTPSSSTPSSRPASLGYSGAAGPRPITQSELATALALASTPESSSHTPTPGTQGHSSGTSPMSSGVQSGTPITNDLFSQALQHALQASGQPSLQSQWQPQLQQLRDMGIQDDELSLRALQATGGDIQAALELIFAGGAP
